At least one structure is not confirmed: it was looked up by name or label, or the drawing left a doubt.
How the values were obtained:
[1] = inhibition of ascorbate oxidation by isoquercetin
[2] = target: angiotensin-converting enzyme (Homo sapiens, UniProt P12821); conditions: Kameda et al., 1987; cited from earlier work
human lymphocytes = conditions: Noroozi et al., 1998; cited from earlier work

Sequences of proteins named here, by UniProt entry; tags and fusion partners are left off. Residues count along the entry.
UniProt P12821, 30-1306, species assumed: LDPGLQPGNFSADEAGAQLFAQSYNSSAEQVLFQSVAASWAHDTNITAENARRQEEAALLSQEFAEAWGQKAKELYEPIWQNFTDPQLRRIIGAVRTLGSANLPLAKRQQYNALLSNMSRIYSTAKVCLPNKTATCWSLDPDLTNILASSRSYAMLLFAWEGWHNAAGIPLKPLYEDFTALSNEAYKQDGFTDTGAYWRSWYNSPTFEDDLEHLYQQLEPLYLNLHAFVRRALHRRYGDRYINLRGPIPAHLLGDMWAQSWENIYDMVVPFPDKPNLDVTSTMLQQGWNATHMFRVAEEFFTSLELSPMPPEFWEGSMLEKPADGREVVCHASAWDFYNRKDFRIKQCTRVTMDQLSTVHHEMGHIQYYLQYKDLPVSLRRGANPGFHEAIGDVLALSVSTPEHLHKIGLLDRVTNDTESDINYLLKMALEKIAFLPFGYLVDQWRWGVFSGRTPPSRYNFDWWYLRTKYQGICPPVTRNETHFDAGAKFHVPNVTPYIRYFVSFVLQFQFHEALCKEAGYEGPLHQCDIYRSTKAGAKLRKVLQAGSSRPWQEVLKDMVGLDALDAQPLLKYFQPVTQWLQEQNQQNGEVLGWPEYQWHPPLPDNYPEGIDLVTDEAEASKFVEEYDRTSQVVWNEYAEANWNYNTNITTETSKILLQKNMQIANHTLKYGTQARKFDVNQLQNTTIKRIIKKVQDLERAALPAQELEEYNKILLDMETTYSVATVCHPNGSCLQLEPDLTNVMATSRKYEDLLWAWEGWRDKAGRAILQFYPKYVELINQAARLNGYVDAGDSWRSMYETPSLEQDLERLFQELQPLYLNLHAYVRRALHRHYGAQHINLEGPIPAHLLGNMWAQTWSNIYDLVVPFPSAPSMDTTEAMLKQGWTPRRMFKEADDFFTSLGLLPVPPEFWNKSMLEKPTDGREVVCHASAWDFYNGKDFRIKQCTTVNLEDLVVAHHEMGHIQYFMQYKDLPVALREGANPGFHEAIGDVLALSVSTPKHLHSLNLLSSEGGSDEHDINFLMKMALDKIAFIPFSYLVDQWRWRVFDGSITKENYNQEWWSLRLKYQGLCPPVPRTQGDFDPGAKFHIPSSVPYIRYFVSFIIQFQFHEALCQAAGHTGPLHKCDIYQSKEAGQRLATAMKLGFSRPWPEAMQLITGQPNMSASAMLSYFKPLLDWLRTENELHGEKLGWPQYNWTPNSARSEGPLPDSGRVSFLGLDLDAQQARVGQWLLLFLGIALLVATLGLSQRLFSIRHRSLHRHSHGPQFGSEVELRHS

O=c1c(O[C@@H]2O[C@H](CO)[C@@H](O)[C@H](O)[C@H]2O)c(-c2ccc(O)c(O)c2)oc2cc(O)cc(O)c12 [isoquercetin, quercetin-3-O-glucoside]
inhibition of ascorbate oxidation [1]: effectively inhibits ascorbate oxidation
antihypertensive properties [2]: anthypertensive properties
protection in oxidative DNA damage (human lymphocytes): dose-dependent protection in oxidative DNA damage
